System: mushroom TYR
Assay: Fluorescence quenching assay of TYR
Assay type: binding, Agaricus bisporus
Conditions: static quenching, double-log equation; 310 K
Method: The fluorescence quenching spectra were recorded with an excitation wavelength (λex = 280 nm) and excitation and emission slit widths of 5 nm. A potassium phosphate buffer (80 μL, 50 mM, pH 6.8), 20 μL of tyrosinase (100 units/mL), and 2 μL of the tested compounds (10–100 μM) dissolved in DMSO were added to 96-well plates. After incubating at 37 °C for 20 min, the fluorescence spectrum was recorded at an emission range from 315 to 415 nm. Fluorescence quenching is described by the Stern–Volmer equation [69]: F0/F=1+Kqτ0[Q]=1+ksv[Q]
For the static quenching interaction, the binding affinity (Ka) and the number of binding sites (n) between the inhibitor and TYR were determined using the following calculations:(1) logF0−F/F=nlogQ+logka where F and F0 represent the fluorescence intensities of protein in the presence and absence of a quencher, respectively. [Q] is the quencher concentration. Ksv is the Stern–Volmer quenching constant, and kq is the rate constant of the bimolecular quenching process. τ0 is the average fluorescence lifetime of the fluorophores in the absence of the quencher, with a typical value of 10^−8 s for biological macromolecules.

SMILES	n (number of binding sites)
C=C(C)[C@@H]1CCC(C)=C[C@H]1c1c(O)cc(CCCCC)c(/C=N/NC(N)=S)c1O [Compound 5, 3-thiosemicarbazone–CBD–aldehyde]	1.05
C=C(C)[C@@H]1CCC(C)=C[C@H]1c1c(O)cc(CCCCC)c(/C=N/NC(=S)NC)c1O [Compound 6, 3-(4-methyl-3-thiosemicarbazone)–CBD–aldehyde]	1.08
C=C(C)[C@@H]1CCC(C)=C[C@H]1c1c(O)cc(CCCCC)c(/C=N/NC(=S)N(C)C)c1O [Compound 7, 3-(4,4-dimethyl-3-thiosemicarbazone)–CBD–aldehyde]	0.92
C=C(C)[C@@H]1CCC(C)=C[C@H]1c1c(O)cc(CCCCC)c(/C=N/NC(=S)Nc2ccccc2)c1O [Compound 8, 3-(4-phenyl-3-thiosemicarbazone)–CBD–aldehyde]	1.19
C=C(C)[C@@H]1CCC(C)=C[C@H]1c1c(OC)cc(CCCCC)c(/C=N/NC(N)=S)c1OC [Compound 9, 3-thiosemicarbazone–CBD–dimethylether]	1.01

From PMC11944387, “Cannabidiol-Based Thiosemicarbazones: A Preliminary Study Evaluating Their Anti-Tyrosinase Properties” (Molecules, 2025)
